Among the data in paper PMC11012870 are binding values, retold here.

Sequences of proteins named here, by UniProt entry; tags and fusion partners are left off. Residues count along the entry.
UniProt Q9IH62: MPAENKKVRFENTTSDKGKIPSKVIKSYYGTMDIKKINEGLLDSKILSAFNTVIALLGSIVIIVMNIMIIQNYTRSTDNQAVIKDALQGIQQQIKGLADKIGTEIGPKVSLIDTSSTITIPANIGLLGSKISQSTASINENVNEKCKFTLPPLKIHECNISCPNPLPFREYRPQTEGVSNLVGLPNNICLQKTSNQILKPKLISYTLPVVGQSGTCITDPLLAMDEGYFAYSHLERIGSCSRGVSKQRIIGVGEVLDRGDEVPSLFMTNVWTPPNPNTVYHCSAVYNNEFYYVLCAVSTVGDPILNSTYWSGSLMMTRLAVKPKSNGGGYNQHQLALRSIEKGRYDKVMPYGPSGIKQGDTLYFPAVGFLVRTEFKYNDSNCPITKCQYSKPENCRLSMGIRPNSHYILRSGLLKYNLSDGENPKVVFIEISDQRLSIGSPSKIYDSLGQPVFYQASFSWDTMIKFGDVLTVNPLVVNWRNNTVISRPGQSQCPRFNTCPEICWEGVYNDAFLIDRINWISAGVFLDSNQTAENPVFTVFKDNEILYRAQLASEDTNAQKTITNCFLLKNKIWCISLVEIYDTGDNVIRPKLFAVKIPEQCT
UniProt Q9IH63, residues 27-546: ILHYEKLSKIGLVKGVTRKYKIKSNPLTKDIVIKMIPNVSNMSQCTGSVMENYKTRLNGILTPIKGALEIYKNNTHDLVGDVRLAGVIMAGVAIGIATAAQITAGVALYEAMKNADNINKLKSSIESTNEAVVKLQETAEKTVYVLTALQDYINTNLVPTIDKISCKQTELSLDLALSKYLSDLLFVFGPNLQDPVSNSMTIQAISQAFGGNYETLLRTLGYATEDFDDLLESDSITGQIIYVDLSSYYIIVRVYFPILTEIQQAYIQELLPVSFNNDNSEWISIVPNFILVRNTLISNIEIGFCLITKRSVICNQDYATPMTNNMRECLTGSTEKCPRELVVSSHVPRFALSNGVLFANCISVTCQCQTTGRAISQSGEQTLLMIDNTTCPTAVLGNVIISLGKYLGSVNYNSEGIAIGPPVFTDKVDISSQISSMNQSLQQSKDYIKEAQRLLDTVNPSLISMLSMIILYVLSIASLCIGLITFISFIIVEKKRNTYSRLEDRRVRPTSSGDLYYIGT
UniProt P16949: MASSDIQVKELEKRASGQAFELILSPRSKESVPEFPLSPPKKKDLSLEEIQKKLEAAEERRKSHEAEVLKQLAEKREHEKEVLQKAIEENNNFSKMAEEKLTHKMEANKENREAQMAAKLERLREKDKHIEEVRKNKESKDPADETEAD

Assay [1] concerns the target Nipah virus attachment (G) glycoprotein fused to Myc-TurboID (Nipah virus) (UniProt Q9IH62). In words: proximity labelling.
Assay [2] deals with Nipah virus fusion (F) glycoprotein fused to Myc-TurboID (Nipah virus) (UniProt Q9IH63). In words: proximity labelling.

Results are given in words; binding and its absence hold for the method and conditions named. Binding seen in cells or lysates may run through a third protein. Here binding means that the protein was enriched with, or labelled near, the bait; the list need not be complete.

Consider Cortactin (from UniProt Q14247-1 1-550), for which the binding entry in assay [1] and in assay [2] was “binds” in each case.

Regarding stathmin 1 (from UniProt P16949 1-149), the binding entry in assay [1] and in assay [2] was “binds” in each case.
